# Source: PubChem BioAssay AID504594 (Broad Institute, 2011)
# Several values for one entry are separate records, joined by “and”; a condition that tells them apart may be missing. Equal entries are not always repeated. The whole screen tested about 2,000 compounds, of which fewer than 10 were called active.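 Rule for the calls: active = growth inhibition of at least 75% in every replicate, which also brings the mean inhibition to 75% or more; inconclusive = mean inhibition 75% or more but some replicate under 75%; inactive = the rest.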 This is one part of the list.
# Test: reduced viability of yeast carrying PfHsp90 – S. cerevisiae, BacTiter-Glo luminescence, antimalarial PfHsp90 inhibitor project, primary screen (AID 504594);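 note: 0% = DMSO neutral control wells and 100% = 20 µM radicicol control wells; higher value means stronger growth inhibition because the sign is flipped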
# Details: S. cerevisiae expressing PfHsp90, BacTiter-Glo growth, 48 h; at 9.4 µM; hits give high values
row,SMILES,growth inhibition
1,COc1cc(CNCCc2ccccc2F)ccc1OCC(=O)N1CCCCC1,inactive: 2.63%
2,CC(O)Cn1cnc2c1c(=O)n(C)c(=O)n2C (configuration not stated),inactive: 5.74%
3,O=C(NC(=S)N1CCCCC1)c1cccnc1,inactive: 6.65%
4,CC(C)C12CN3CC(C(C)C)(CN(C1)C3c1ccccc1O)C2=O (configuration not stated),inactive: -20.9%
5,NS(=O)(=O)c1cc2c(cc1C(F)(F)F)NCNS2(=O)=O,inactive: 5.18%
6,CCOC(=O)/C=C1\NC(C)(C)Cc2cc(OC)c(OC)cc21,inactive: -1.93%
7,CC12CN3CC(C)(CN(C1)C3c1ccc(Br)cc1O)C2 (configuration not stated),inactive: -9.36%
8,O=S(=O)(NCCCCCNS(=O)(=O)c1ccccc1)c1ccccc1,inactive: 0.743%
9,CCc1ccc(/C=C2\SC(=S)N(CCC(=O)N3CCN(C)CC3)C2=O)cc1,inactive: 0.811%
10,COC(=O)c1cc(=O)c2ccc(OC)cc2o1,inactive: -6.99%
11,Cc1cccc(C)c1NS(=O)(=O)c1ccc(NC(=O)c2ccc(Cl)c([N+](=O)[O-])c2)cc1,inactive: 2.94%
12,CN1[C@@H]2CC(OC(=O)[C@H](CO)c3ccccc3)C[C@H]1[C@@H]1O[C@@H]12 (some centres not stated),inactive: 12.2% and inactive: 3.68%
13,O=C(NCc1ccc(N2CCCC2=O)cc1)c1ccc(F)cc1,inactive: 5.55%
14,COc1cc(C(=O)Nc2cccc(-c3nnc(-c4ccco4)o3)c2)ccc1OC(C)=O,inactive: -14.1%
15,CCNC(=S)Nc1ccc(OC(F)(F)F)cc1,inactive: 4.03%
16,O=c1cc(-c2ccc3c(c2)OCCO3)oc2ccc(Cl)cc12,inactive: -11.1%
17,NC(=O)c1cnccn1,inactive: -0.413%
18,Cc1nc2ccccn2c(=O)c1CCN1CCC(C(=O)c2ccc(F)cc2)CC1,inactive: 0.603%
19,CCCn1c(=O)c2[nH]c(C3CCCC3)nc2n(CCC)c1=O,inactive: -9.88%
20,CCOC(=O)n1c(=O)oc2ccccc21,inactive: -13.3%
21,O=C(CCNNC(=O)c1ccncc1)NCc1ccccc1,inactive: 7.36%
22,Oc1[nH]c2ccccc2c1C1=NCCCC1,inactive: 6.2%
23,COc1ccc(-c2noc(CCc3ccccc3)n2)cc1,inactive: -9.73%
24,C=C(C)[C@@H]1CC=C(CN2CCC(N3CCC(C(=O)N4CCCC4)CC3)CC2)CC1,inactive: -0.183%
25,COc1cc2c(cc1NCc1ccc3c(c1)OCO3)oc1ccccc12,inactive: 6.06%

# Single entries from the entries so far:
# COc1cc(C(=O)Nc2cccc(-c3nnc(-c4ccco4)o3)c2)ccc1OC(C)=O – growth inhibition: inactive: -14.1%
# COc1ccc(-c2noc(CCc3ccccc3)n2)cc1 – growth inhibition: inactive: -9.73%
# O=c1cc(-c2ccc3c(c2)OCCO3)oc2ccc(Cl)cc12 – growth inhibition: inactive: -11.1%
# CN1[C@@H]2CC(OC(=O)[C@H](CO)c3ccccc3)C[C@H]1[C@@H]1O[C@@H]12 (some centres not stated) – growth inhibition: inactive: 12.2% and inactive: 3.68%
# Oc1[nH]c2ccccc2c1C1=NCCCC1 – growth inhibition: inactive: 6.2%
# CCNC(=S)Nc1ccc(OC(F)(F)F)cc1 – growth inhibition: inactive: 4.03%

# Additional structures follow:

row,SMILES,growth inhibition
1,CC(C)C[C@H](NC(=O)[C@@H]1Cc2ccccc2CN1C(=O)OC(C)(C)C)C(=O)NCC1CCC(C(=O)O)CC1 (some centres not stated),inactive: -0.118%
2,COC(=O)c1ccc(=O)n(Cc2ccco2)c1,inactive: -3.9%
3,O=C(Nc1cccc(Oc2c(F)c(F)c(F)c(F)c2F)c1)N1C[C@@H]2C[C@@H](C1)c1cccc(=O)n1C2,inactive: 7.42%
4,N/C(=N\OC(=O)c1ccc(Br)o1)c1ccccn1,inactive: 1.74%
5,Cn1c(=O)[nH]c(=O)c2c1nc(Br)n2CCCO,inactive: 1.03%
6,COc1cccc(OC2OC3COC(C)(C)OC3C(O)C2NC(C)=O)c1 (configuration not stated),inactive: -1.74%
7,O=C(Nc1ccc(Oc2c(F)c(F)c(F)c(F)c2F)cc1)OC1CCN2Cc3ccccc3N=C12 (configuration not stated),inactive: 2.89%
8,C/C=C(/C(=C/C)c1ccc(O)cc1)c1ccc(O)cc1,inactive: -5.88%
9,Cc1ncc([N+](=O)[O-])n1CC(C)O (configuration not stated),inactive: -0.773%
10,COc1ccc(-c2cc3cc(OC)c(OC)cc3c(C)n2)cc1,inactive: 4.39%
11,O=[N+]([O-])c1cc(/C=N/n2cnnc2)ccc1N1CCCC1,inactive: 1.79%
12,COc1ccc2cc([C@H](C)C(=O)O)ccc2c1,inactive: -4.27%
13,CCN(CC)c1ccc(C2=NNC(=O)CC2C)cc1[N+](=O)[O-] (configuration not stated),inactive: -4.84%
14,C[C@@H]1C[C@H](Nc2ccccc2)c2ccccc2N1C(=O)c1cccnc1,inactive: -6.79%
15,Cc1cc(O)c2/c(=N\N)c(-c3csc(C)n3)coc2c1,inactive: 0.851%
16,CC1(C)S[C@@H]2[C@H](NC(=O)[C@H](N)c3ccccc3)C(=O)N2[C@H]1C(=O)O,inactive: 0.582% and inactive: 0.988%
17,CC(=O)NCCCC(=O)NC(CCC(=O)OCc1ccccc1)C(=O)OCc1ccccc1 (configuration not stated),inactive: 0.724%
18,O=c1n(CCCN2CCN(c3cccc(Cl)c3)CC2)nc2ccccn12,inactive: -4.91%
19,CC12CCC(C(=O)NNc3ccccc3)(C(=O)C1=O)C2(C)C (configuration not stated),inactive: 0.791%
20,OC12CCCCC1C(c1ccc3c(c1)OCO3)N(Cc1cccc(F)c1)CC2 (configuration not stated),inactive: -5.52%
21,CC(=O)O[C@H]1CC[C@H]2[C@@H]3CCc4cc(O)ccc4[C@H]3CC[C@]12C,inactive: -2.83%
22,CCCCCCCC(=O)OCC(O)CO (configuration not stated),inactive: -0.758%
23,Nc1ccc(N)c(C(=O)O)c1,inactive: -0.138%
24,CCOc1ccc2nc(S(N)(=O)=O)sc2c1,inactive: 4.43%
25,CN1CCCN(C(c2ccccc2)c2ccc(Cl)cc2)CC1 (configuration not stated),inactive: -0.936%

row,SMILES,growth inhibition
1,O=C(O)c1ccccc1O,inactive: -8.83%
2,CCNCCC(CCC(C)C)c1ccc2c(c1)OCO2 (configuration not stated),inactive: 17.1%
3,C/C(NC(=O)c1cccs1)=C1\C(=O)C[C@@H]2[C@H]1C2(C)C,inactive: 1.59%
4,O=P(c1ccccc1)(c1ccccc1)c1nc(-c2ccc(Cl)cc2)oc1N1CCOCC1,inactive: -7.34%
5,Cc1cc(/C=N/O)c(C)n1-c1ccc(Br)cc1,inactive: -4.29%
6,N#C/C(=C\c1ccc(O)c(O)c1)C(=O)NCCCc1ccccc1,inactive: 14.5%
7,COc1ccc(-c2[nH]ncc2CN(CCO)Cc2cccs2)c(F)c1,inactive: -4.42%
8,CCOC(=O)C1CCCN(Cc2nc(Cc3cccc(F)c3)no2)C1 (configuration not stated),inactive: -6.92%
9,CCOc1ccc(C(=O)NCC2(c3ccccc3)CCOCC2)cc1,inactive: 20.6%
10,COc1cccc(/C=C/C(=O)c2c(O)cc(C)oc2=O)c1O,inactive: -2.62%
11,CCN1C(=O)C(CC(=O)Nc2ccc(F)cc2)N(Cc2ccc3c(c2)OCO3)C1=S (configuration not stated),inactive: 10.5%
12,COc1ccccc1/C=C/C(=O)c1c2c(c(C)[nH]c1=O)CCCC2,inactive: 6.58%
13,CN(C)CCOc1ccc(Cl)cc1C(C)(C)C,inactive: -0.977%
14,CC(=O)c1c(C)[nH]c(C(=O)OCc2ccccc2)c1C,inactive: -16%
15,CCc1cc(=O)oc2cc(C)c(CN3CCCC(C)C3)c(O)c12 (configuration not stated),inactive: 16.4%
16,COC(=O)CCC(=O)CN,inactive: -5.07%
17,CC1(C)NC(C(=O)O)Cc2c1[nH]c1ccccc21 (configuration not stated),inactive: 7.2%
18,COc1ccc2cc(-c3nc4ccccc4n3C)c(=O)oc2c1,inactive: -7.02%
19,O=C(Nc1ccccc1)OCC1CCCN2CCCCC12 (configuration not stated),inactive: -3.54%
20,COc1cc(C2C(C(C)=O)=C(O)C(=O)N2c2ccc(C)cc2)ccc1O (configuration not stated),inactive: 6.76%
21,CC(C)=CCC/C(C)=C/CC/C(C)=N/O,inactive: -12.1%
22,CC(C)OC(=O)C(C)(C)Oc1ccc(C(=O)c2ccc(Cl)cc2)cc1,inactive: -6.46%
23,COC(=O)C1[C@H]2C(=O)N(Cc3cccs3)C[C@]23C=C[C@H]1O3 (some centres not stated),inactive: 1.27%
24,CC(C)NC(=O)C1(c2ccccc2)CCOCC1,inactive: -8.01%
25,CC1(C)CC(=O)C(C2(O)C(=O)Nc3ccccc32)CO1 (configuration not stated),inactive: 2.4%

row,SMILES,growth inhibition
1,O=C(CCCCC(=O)NC1CCCC1)NC1CCCC1,inactive: -14.7%
2,CC[C@H](C)C(=O)O[C@H]1C[C@@H](C)C=C2C=C[C@H](C)[C@H](CC[C@@H]3C[C@@H](O)CC(=O)O3)[C@H]21,inactive: -16.1%
3,Cc1nc(C2CC(=O)OC23CCCCC3)cs1 (configuration not stated),inactive: 2.17%
4,COc1ccc(C(=O)O)cc1F,inactive: -4.03%
5,COc1cccc(OCc2cc(C3Nc4ccccc4C(=O)N3Cc3ccco3)ccc2OC)c1 (configuration not stated),inactive: -4.77%
6,Cc1ccc(C2CC(c3cccs3)=NN2C(=O)c2ccco2)o1 (configuration not stated),inactive: 6.03%
7,COc1cc(CNc2ccc(C)c(C)c2)cc(OC)c1OC,inactive: 13.4%
8,CC(=O)N[C@@H](CS)C(=O)O,inactive: 3.67%
9,O=C(CNC(=O)OCc1ccccc1)NC1CCCCCC1,inactive: 5.59%
10,O=C(OCC(O)C(O)COC(=O)c1ccccc1)c1ccccc1 (configuration not stated),inactive: -1.38%
11,O=C(CCc1ccccc1)Nc1ccccc1C(F)(F)F,inactive: -4.86%
12,CC(=O)c1c(C)c(C)c2n1CCn1c(C)ccc1-2,inactive: 6.96%
13,COc1cc(CC(=O)NCCc2ccc(S(N)(=O)=O)cc2)cc(OC)c1OC,inactive: -0.242%
14,COc1ccc(C(=O)CCN2CCc3cc(OC)c(OC)cc3C2)cc1,inactive: 4.16%
15,Cc1cccc(OCC(=O)Nc2ccc(C(=O)NCC(C)C)cc2)c1,inactive: 0.532%
16,CC(=O)NC(CC(C)C)C(=O)NC(Cc1ccccc1)C(N)=O (configuration not stated),inactive: 2.06%
17,Cc1c(OCC(=O)NC(Cc2c[nH]c3ccc(O)cc23)C(=O)O)ccc2c3c(c(=O)oc12)CCC3 (configuration not stated),inactive: 5.25%
18,Cc1ccnc(NS(=O)(=O)c2ccc(N)cc2)n1,inactive: -0.741%
19,NC(=O)OCC(COC(N)=O)c1ccccc1,inactive: -16.6%
20,CC1(C#CC[N+]2(C)CCCCC2)CCC2C(O1)c1ccccc1OC2(C)C (configuration not stated),inactive: -9.86%
21,Cc1ccc(C(=O)COC(=O)c2cccc(N3C(=O)c4c(C)nc5ccccc5c4C3=O)c2)cc1C,inactive: 2.21%
22,Cc1cc(O)c(C(C)C)cc1C1(c2cc(C(C)C)c(O)cc2C)OC(=O)c2ccccc21,inactive: -1.02%
